Results published in US6051698.
For some of these results: No signal at the amounts used counts as a negative.

Chains of the proteins cited; added tags and fusions are not shown. Chains listed by the source or under a name are the forms on record and can include a tag or linker.
VEGF165 reduced with DTT (Homo sapiens), one chain, as listed by the source: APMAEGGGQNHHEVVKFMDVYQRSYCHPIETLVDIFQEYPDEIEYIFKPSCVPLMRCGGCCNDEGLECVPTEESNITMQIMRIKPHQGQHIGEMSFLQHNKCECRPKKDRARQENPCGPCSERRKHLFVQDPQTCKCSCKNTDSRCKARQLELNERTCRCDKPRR

Columns and labels:
[1] = test system: VEGF165 reduced with DTT (Homo sapiens); test: filter binding; settings: 2'-F pyrimidines, 2'-OMe purines except two 2'-OH purines, VEGF165 reduced with DTT, purified recombinant protein, protein details: R&D Systems, Sf21, DTT-reduced before incubation
VEGF165 (Homo sapiens) [2] = test: activity assay; settings: 2'-F pyrimidines, 2'-OMe/2'-OH purines, 3'-3' dT, Miles assay guinea pig, VEGF isoform not stated, purified recombinant protein, variant of t44OMe
VEGF165 (Homo sapiens) [3] = test: filter binding; settings: 2'-F pyrimidines, 2'-OH purines, 3'-3' dT cap [21 (3'-3' dT cap); 2'-F pyrimidines 2,11,12,18,20]; 37 C; purified recombinant protein; letters built from the parent sequence and the stated change; variant of VP30.22

Sequence: CGGAAUCAGUGAAUGCUUAUACAUCCG [t44OMe]
- binding result ([1]; variant of t44a): no binding

Sequence: CGGAAUCAGUGAAUGCUUAUACAUCCGT [NX31838-20K PEG]
- functional effect of the aptamer (VEGF165 (Homo sapiens) [2]; 5' 20K mPEG via aminolinker, blocks VEGF vascular leakage down to 100 nM, lost at 30 nM): active

Sequence: CGGAAUCAGUGAAUGCUUAUACAUCCGT [NX31838-40K PEG]
- functional effect of the aptamer (VEGF165 (Homo sapiens) [2]; 5' 40K mPEG via aminolinker, blocks VEGF vascular leakage down to 100 nM, lost at 30 nM): active

Sequence: CGGAAUCAGUGAAUGCUUAUACAUCCGT [NX31838-PL (liposomal)]
- functional effect of the aptamer (VEGF165 (Homo sapiens) [2]; phospholipid (C-18), liposomal, reduced blocking at 100 nM): active

Sequence: GCGAACCGAUGGAAUUUUUGGACGCUCGC [t2OMe]
- binding result ([1]; variant of t2a): no binding

Sequence: GCGGUAGGAAGAAUUGGAAGCGC [t22OMe]
- binding result ([1]; variant of t22c): no binding

Sequence: GUAGGAAGAAUUGGAAGCGCT [t22f]
- Kd (VEGF165 (Homo sapiens) [3]): > 100 nM
